Data from PubChem BioAssay AID493014 (National Center for Advancing Translational Sciences (NCATS), 2011).
This is one part of the list. These are further read-outs of the screen, such as a control signal, another cell line or another target. No call is given for them. Compounds called inactive in the main read-out are mostly missing here. Potencies come from curve fits of mixed quality, noted in brackets.

Test: qHTS Assay to Find Inhibitors of Chronic Active B-Cell Receptor Signaling
Details: ABC-DLBCL IkBa-CBG/CBR reporter, luminescence ratio (green luciferase fused to IkBa over red control in TMD8 lymphoma cells), 4 h
Outline: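 Compounds up to 46 uM were incubated four hours with TMD8 cells whose green CBG68 luciferase is fused to IkappaBalpha; red CBR luminescence normalised the signal, and concentration-effect curves were fitted to fusion, red and ratio data.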

[1] = measured here: CBR red luminescence, cell number

Structure (SMILES)	AC50 [1]	AC50 (measured here: IkBa-CBG green luminescence)
Cc1ccc(-c2csc(NC(=O)C[n+]3cc(-c4ccc(C)cc4)n4c3CCC4)n2)cc1	20 µM [falling, single point]	
CCOC(=O)c1ccc(NC(=S)NCc2cccnc2)cc1	35.5 µM [rising, single point]	
NC(=O)c1ccsc1NC(=O)COC(=O)c1ccccc1NCc1ccco1	2.51 µM [falling, full curve, poor fit]	
COc1ccc(N2CCn3c2nc2c3c(=O)n(CCCc3ccccc3)c(=O)n2C)c(OC)c1	1 µM [falling, partial curve]	
Cc1ccc(Cc2cnc(NC(=O)C3CCCO3)s2)cc1 (centres undefined)	3.98 µM [rising, full curve, poor fit]	
N=c1cc(C2(O)CCCCC2)n2c(nc3ccccc32)s1	0.231 µM [rising, full curve, poor fit]	
Cc1ccn(-c2ccc(NC(=O)c3cccs3)cc2)n1	2 µM [falling, full curve]	
CCOc1ccc(N2CC(NS(=O)(=O)c3cccnc3)CC2=O)cc1 (centres undefined)	23.1 µM [rising, single point]	
Cc1ccc(NC(=O)c2cncc(Br)c2)c(O)c1	12.6 µM [falling, partial curve, poor fit]	
Cc1ccc(OCCCCN(C)Cc2ccccc2)c(Br)c1	0.082 µM [rising, full curve, poor fit]	
CNCCCCOc1ccccc1Cc1ccccc1	25.1 µM [falling, single point]	
c1ccc(-c2cc3c(-n4cccc4)ncnc3o2)cc1	7.08 µM [falling, partial curve]	
Cc1ccc(CNC(=O)c2cc(-c3ccc(C)cc3)nc3n[nH]c(-c4ccc(F)cc4)c23)cc1	5.01 µM [rising, single point]	
Cc1csc2ncnc(N3CCN(C(=S)Nc4ccc(C(F)(F)F)cc4)CC3)c12	17.8 µM [falling, partial curve, poor fit]	
NC(=S)c1cnn2c(-c3cccc(C(F)(F)F)c3)ccnc12	2.82 µM [rising, partial curve, poor fit]	
c1ccc2cc(CCO[C@H]3CCCCO3)ncc2c1	2.91 µM [rising, partial curve, poor fit]	
NNC(=O)/C(=C\c1ccco1)NC(=O)c1ccco1	7.08 µM [rising, full curve]	3.16 µM [falling, full curve]
CC(=O)Nc1cccc(NC(=O)CSc2nnnn2-c2ccc3c(c2)OCO3)c1	25.1 µM [falling, single point]	

2 neighbouring compounds already listed, for reference:
Structure (SMILES)	AC50 [1]	AC50 (measured here: IkBa-CBG green luminescence)
CCOC(=O)c1ccc(NC(=S)NCc2cccnc2)cc1	35.5 µM [rising, single point]	
NC(=O)c1ccsc1NC(=O)COC(=O)c1ccccc1NCc1ccco1	2.51 µM [falling, full curve, poor fit]	
